Experimental data published in PMC3673990, “Physicochemical Characterization of a Thermostable Alcohol Dehydrogenase from Pyrobaculum aerophilum” (PLoS ONE, 2013).
Where a name gives a salt, the structure may show the parent alone.

Amino acid sequences for entries named in this document (tags omitted).
UniProt Q8ZUP0, entry or part of it: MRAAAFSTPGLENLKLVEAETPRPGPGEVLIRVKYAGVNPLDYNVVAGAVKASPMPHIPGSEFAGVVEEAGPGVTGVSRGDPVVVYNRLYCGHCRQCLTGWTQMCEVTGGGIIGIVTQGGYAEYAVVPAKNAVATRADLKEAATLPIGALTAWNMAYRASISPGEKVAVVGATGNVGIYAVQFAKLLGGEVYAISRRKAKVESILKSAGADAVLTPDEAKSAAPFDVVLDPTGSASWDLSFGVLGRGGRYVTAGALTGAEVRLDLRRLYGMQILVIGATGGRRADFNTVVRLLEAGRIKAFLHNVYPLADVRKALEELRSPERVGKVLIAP

What was measured:
PyAeADHII [1] = molecular target: T1, PyAeADHII (Pyrobaculum aerophilum, UniProt Q8ZUP0); parameters: gene PAE2687; conditions: 70 °C, 260 nM enzyme, 80–1200 µM flunarizine dihydrochloride, 3 mM alpha-tetralone, 0.3 mM NADPH, 50 mM sodium phosphate pH 7.5
PyAeADHII [2] = molecular target: T1, PyAeADHII; assay: biochemical; parameters: gene PAE2687

% inhibition (PyAeADHII [1]): 50–70% | IC50 (PyAeADHII [2]): ~40 µM
Structure (SMILES): Fc1ccc(C(c2ccc(F)cc2)N2CCN(C/C=C/c3ccccc3)CC2)cc1 [flunarizine dihydrochloride]
